Reference: PubChem BioAssay AID2685 (National Center for Advancing Translational Sciences (NCATS), 2010)
The whole screen tested about 320,000 compounds, of which about 2,100 (0.66%) were called active. The inconclusive results got no clear call from the source; some entries with a clear call stand among them for comparison. The call rests on the fitted dose curve; in most records, active means well fitted inhibition curve with a large enough effect in the signal ratio, with a control signal flat (not every such curve was filed as active); inconclusive means small, poorly fitted or top-dose-only effect, or effect the other way, or a change in a side signal; inactive means flat fitted curve, though single readings scatter; the % refers to the signal ratio. Where the call is inconclusive, the potency comes from a doubtful curve fit.

Experiment: qHTS Assay for Lipid Storage Modulators in Drosophila S3 Cells
Conditions: BODIPY lipid droplet fluorescence, 18-24 h, cells fed with added oleic acid; lipid storage change, negative = inhibition: at 46.1 µM (top of the series) unless noted
Outline: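 Laser-scanning cytometry quantifies lipid droplet accumulation (500–530 nm total intensity; droplet/cell object ratio) in oleic acid-fed (400 uM added) Drosophila S3 cells treated with a concentration series. 20 uM Triacsin C defined 100% inhibition.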
On the % scale 0 is the no-effect control and ±100 the full control effect; potency means the concentration at half of the fitted maximal effect.

| SMILES | lipid storage change, negative = inhibition | Potency | outcome |
| --- | --- | --- | --- |
| COc1ccc(CN2C(=O)NC(=O)/C(=C/c3ccoc3)C2=O)cc1 | inconclusive: -42% | – | – |
| COc1cccc(CN2CCNCC2)c1 | – | inconclusive: 29.1 µM [activator, single point] | – |
| CN1CCN(c2ccc(S(=O)(=O)C(F)(F)F)cc2[N+](=O)[O-])CC1 | inconclusive: -12.7% | – | – |
| O=C(Nc1c(F)cc(F)cc1F)c1cccn(Cc2ccccc2)c1=O | – | inconclusive: 2.91 µM [activator, single point] | – |
| C#CCOc1cc(C2C3=C(COC3=O)Nc3cc4c(cc32)OCO4)ccc1OC (stereo not drawn) | inconclusive: 11.3% | – | – |
| O=c1[nH]c(=O)n(Cc2ccccc2)c(O)c1C=Nc1ccc(CN2CCOCC2)cc1 | – | inconclusive: 6.51 µM [rising, single point] | – |
| Fc1cccc(F)c1CN1CCN(c2ccc(Cl)cc2)CC1 | inconclusive: 80.7% | – | – |
| Cc1cccc(-n2c(-c3ccccc3)nc3ccccc3c2=O)n1 | inconclusive: 21.9% | – | – |
| CCN1CCN(Cc2cc(Br)cc(OC)c2O)CC1 | – | inconclusive: 0.103 µM [falling, full curve, poor fit] | – |
| O=C(C[N+]12CCN(CC1)CC2)NCCc1ccc(Cl)cc1Cl | inconclusive: 39.3% | – | – |
| CC(CCc1ccccc1)NCCC#N (stereo not drawn) | inconclusive: -22.9% | – | – |
| COc1cccc(N2C(=O)NC(=O)C3(Cc4cc(C)ccc4N(C)C3)C2=O)c1 (stereo not drawn) | inconclusive: -4.62% | – | – |
| CC1CCCC(NC(=O)COC(=O)c2cn(C)c3ccccc23)C1C (stereo not drawn) | inconclusive: 11% | – | – |
| C[C@]12CCC(=O)C=C1CC[C@@H]1C2CC[C@]2(C)C(=O)CCC12 (stereo partly drawn) | inconclusive: -36.4% | – | – |
| Cn1c(=O)oc2cc(NC(=O)CCl)ccc21 | – | inconclusive: 3.66 µM [falling, full curve, poor fit] | – |
| COC(=O)C1=C(c2ccc(-c3ccccc3)c(F)c2)C[C@@H]2CC[C@H]1N2C(=O)NC1Cc2ccccc2C1 | – | active: 7.31 µM | – |
| Cn1ccnc1P(=S)(c1nccn1C)c1nccn1C | – | inconclusive: 0.164 µM [falling, full curve, poor fit] | – |
| CCCCCCC(=O)c1c(O)n(-c2ccccc2OC)c(=O)[nH]c1=O | inconclusive: 45.7% | – | – |
| Cc1cc(OC(C)C(=O)NCC2CCC(C(=O)O)CC2)c2c3c(c(=O)oc2c1)CCC3 (stereo not drawn) | inconclusive: 251% | – | – |

Some of the entries above, set out differently:
SMILES	lipid storage change, negative = inhibition	Potency	outcome
CN1CCN(c2ccc(S(=O)(=O)C(F)(F)F)cc2[N+](=O)[O-])CC1	inconclusive: -12.7%	–	–
O=C(Nc1c(F)cc(F)cc1F)c1cccn(Cc2ccccc2)c1=O	–	inconclusive: 2.91 µM [activator, single point]	–

Further records

| SMILES | lipid storage change, negative = inhibition | Potency | outcome |
| --- | --- | --- | --- |
| O=[N+]([O-])NC1=NCCN1Cc1ccc(Cl)nc1 | inconclusive: -24.6% | – | – |
| C[C@]12CC[C@@H](O)C[C@H]1CC[C@@H]1[C@@H]2CC[C@]2(C)C(=O)CC[C@@H]12 | inconclusive: -11.9% | – | – |
| CC1CCCCN1Cc1cccnc1 (stereo not drawn) | inconclusive: -19% | – | – |
| CCOC(=O)c1sc(N=Nc2c(O)[nH]c(=O)[nH]c2=O)c(C(=O)OCC)c1C | inconclusive: -15.5% | – | – |
| CN1CCN(c2ccc(N)c(N3CCN(C)CC3)c2)CC1 | – | – | inactive |
| O=C1NC(=O)C(=Cc2cc3c(cc2[N+](=O)[O-])OCO3)C(=O)N1 | inconclusive: 14.6% | – | – |
| CN1CCN(c2ccc(C=O)cc2)CC1 | – | active: 23.1 µM | – |
| C=C(COC(=O)CCC(=O)O)CC1CC(O)[C@]2(C)OC3CC4OC5C[C@]6(C)O[C@]7(C)CCC8OC9C[C@]%10(C)OC%11C(C)=CC(=O)OC%11CC%10OC9C[C@@H](C)C8OC7CC6O[C@]5(C)C/C=C\C4OC3CC2O1 (stereo partly drawn) | inconclusive: -44.3% | – | – |
| O=C1NC(=O)C(=Cc2ccc(OCC(=O)N3CCOCC3)cc2)C(=O)N1 | inconclusive: 12.7% | – | – |
| Cc1ccc(O)c(CN2CCN(c3ccccc3)CC2)c1 | – | inconclusive: 25.9 µM [activator, partial curve, poor fit] | – |
| COc1ccc(CN2CCN(Cc3ccccc3OC)CC2)cc1 | inconclusive: -37.1% | – | – |
| C[n+]1c(-c2ccccc2)cc(-c2ccc(O)cc2)cc1-c1ccccc1 | inactive: 24.3% | – | – |
| C#CCN(C)[C@H](C)Cc1ccccc1 | inconclusive: 1.26% | – | – |
| Cc1cc(=O)oc2cc3c(cc12)CCCN3 | inconclusive: 244% | – | – |
| COc1ccccc1C1=NCc2nnc(C)n2-c2ccc(Cl)cc21 | inconclusive: 20.6% | – | – |
| CC(C)C(=O)N(Cc1ccccc1)S(=O)(=O)c1ccc2c(c1)oc(=O)n2C | – | inconclusive: 29.1 µM [falling, single point] | – |
| CN1C(=O)/C(=C/C=C/c2ccco2)C(=O)NC1=S | – | inconclusive: 5.8 µM [falling, full curve] | – |
| O=C(CN1CCCCC1)c1ccccc1F | inconclusive: -14.5% | – | – |
| OC(CN1CC=C(c2ccccc2)CC1)c1ccccc1 (stereo not drawn) | – | inconclusive: 1.16 µM [falling, partial curve] | – |
